Test results as given in paper PMC10432340.
Read-outs that look alike come from different tables or passages of the source. Results are given in words; binding and its absence hold for the method and conditions named. In cells and extracts the contact can be indirect. Some binding calls cover weakened binding; strength is not graded here.

Chains of the proteins cited; added tags and fusions are not shown. Lines headed by an entry give the natural chain unless they say otherwise; changes in a name come on top. A line that says so, or that is headed by a name, gives the form on record, which may keep a tag or linker.
MYC-AMBRA1 S1223A (Q9C0C7, form named): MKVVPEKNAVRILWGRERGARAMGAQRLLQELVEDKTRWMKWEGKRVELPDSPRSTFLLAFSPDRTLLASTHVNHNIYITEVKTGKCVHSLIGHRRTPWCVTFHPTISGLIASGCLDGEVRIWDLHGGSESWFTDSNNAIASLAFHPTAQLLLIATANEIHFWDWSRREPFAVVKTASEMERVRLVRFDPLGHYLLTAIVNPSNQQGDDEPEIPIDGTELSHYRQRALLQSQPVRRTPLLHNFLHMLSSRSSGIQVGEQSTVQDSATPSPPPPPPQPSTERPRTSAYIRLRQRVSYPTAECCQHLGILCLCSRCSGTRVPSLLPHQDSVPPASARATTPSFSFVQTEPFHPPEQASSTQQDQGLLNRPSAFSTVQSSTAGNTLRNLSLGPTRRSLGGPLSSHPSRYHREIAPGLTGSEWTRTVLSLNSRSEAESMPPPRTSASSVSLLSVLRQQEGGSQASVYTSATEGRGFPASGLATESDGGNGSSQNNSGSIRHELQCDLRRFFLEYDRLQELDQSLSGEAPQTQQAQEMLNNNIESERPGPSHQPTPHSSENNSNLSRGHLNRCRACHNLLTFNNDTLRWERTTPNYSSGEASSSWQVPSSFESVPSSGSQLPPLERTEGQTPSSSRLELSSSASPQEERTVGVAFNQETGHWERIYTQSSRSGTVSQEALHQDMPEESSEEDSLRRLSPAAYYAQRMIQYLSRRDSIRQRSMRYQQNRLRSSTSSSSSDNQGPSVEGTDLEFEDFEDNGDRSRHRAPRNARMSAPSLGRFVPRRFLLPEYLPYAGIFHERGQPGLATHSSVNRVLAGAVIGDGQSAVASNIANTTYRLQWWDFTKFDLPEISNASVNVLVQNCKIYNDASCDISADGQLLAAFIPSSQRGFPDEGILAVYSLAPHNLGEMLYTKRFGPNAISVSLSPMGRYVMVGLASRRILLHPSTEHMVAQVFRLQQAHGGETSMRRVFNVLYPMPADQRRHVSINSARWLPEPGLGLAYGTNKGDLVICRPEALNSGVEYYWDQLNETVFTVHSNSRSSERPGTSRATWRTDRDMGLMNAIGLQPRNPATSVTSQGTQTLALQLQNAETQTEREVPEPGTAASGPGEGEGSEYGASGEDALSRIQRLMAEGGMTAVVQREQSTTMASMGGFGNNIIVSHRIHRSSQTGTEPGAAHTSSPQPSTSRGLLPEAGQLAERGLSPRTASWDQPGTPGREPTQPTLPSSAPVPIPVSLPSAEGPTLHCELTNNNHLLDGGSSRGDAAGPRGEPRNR
MYC-AMBRA1 AA^1209/1223 (T1209A/S1223A) (Q9C0C7, form named): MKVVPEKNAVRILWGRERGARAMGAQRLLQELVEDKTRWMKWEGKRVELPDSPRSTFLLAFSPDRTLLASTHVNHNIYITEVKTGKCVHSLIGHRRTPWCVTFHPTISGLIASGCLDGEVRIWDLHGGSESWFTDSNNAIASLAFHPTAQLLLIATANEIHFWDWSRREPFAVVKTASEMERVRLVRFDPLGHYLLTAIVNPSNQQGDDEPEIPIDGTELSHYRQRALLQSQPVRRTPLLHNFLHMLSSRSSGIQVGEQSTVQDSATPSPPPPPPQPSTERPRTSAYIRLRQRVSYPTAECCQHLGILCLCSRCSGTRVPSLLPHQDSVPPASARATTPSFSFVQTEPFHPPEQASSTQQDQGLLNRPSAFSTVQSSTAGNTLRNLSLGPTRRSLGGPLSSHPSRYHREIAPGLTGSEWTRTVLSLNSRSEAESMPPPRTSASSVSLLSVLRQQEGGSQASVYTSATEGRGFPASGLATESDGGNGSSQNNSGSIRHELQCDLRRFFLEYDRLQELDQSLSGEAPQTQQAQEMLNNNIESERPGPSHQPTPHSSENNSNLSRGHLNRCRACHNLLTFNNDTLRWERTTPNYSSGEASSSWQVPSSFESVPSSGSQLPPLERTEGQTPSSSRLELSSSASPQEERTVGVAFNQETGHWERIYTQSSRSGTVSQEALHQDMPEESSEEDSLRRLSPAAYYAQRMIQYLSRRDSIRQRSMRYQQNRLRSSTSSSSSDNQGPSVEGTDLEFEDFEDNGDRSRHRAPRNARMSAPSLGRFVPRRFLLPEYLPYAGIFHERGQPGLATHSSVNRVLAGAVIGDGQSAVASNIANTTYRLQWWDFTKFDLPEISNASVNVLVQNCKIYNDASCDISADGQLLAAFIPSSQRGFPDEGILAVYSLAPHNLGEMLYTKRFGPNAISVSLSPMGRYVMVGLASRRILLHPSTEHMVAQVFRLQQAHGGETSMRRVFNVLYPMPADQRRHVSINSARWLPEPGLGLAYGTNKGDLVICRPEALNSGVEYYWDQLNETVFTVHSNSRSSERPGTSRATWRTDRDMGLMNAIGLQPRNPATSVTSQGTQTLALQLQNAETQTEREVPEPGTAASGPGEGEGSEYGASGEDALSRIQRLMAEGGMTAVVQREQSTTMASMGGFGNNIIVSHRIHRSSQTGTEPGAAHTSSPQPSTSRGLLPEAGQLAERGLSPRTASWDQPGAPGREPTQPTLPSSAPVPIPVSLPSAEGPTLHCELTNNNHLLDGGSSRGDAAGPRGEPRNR
UniProt Q14980: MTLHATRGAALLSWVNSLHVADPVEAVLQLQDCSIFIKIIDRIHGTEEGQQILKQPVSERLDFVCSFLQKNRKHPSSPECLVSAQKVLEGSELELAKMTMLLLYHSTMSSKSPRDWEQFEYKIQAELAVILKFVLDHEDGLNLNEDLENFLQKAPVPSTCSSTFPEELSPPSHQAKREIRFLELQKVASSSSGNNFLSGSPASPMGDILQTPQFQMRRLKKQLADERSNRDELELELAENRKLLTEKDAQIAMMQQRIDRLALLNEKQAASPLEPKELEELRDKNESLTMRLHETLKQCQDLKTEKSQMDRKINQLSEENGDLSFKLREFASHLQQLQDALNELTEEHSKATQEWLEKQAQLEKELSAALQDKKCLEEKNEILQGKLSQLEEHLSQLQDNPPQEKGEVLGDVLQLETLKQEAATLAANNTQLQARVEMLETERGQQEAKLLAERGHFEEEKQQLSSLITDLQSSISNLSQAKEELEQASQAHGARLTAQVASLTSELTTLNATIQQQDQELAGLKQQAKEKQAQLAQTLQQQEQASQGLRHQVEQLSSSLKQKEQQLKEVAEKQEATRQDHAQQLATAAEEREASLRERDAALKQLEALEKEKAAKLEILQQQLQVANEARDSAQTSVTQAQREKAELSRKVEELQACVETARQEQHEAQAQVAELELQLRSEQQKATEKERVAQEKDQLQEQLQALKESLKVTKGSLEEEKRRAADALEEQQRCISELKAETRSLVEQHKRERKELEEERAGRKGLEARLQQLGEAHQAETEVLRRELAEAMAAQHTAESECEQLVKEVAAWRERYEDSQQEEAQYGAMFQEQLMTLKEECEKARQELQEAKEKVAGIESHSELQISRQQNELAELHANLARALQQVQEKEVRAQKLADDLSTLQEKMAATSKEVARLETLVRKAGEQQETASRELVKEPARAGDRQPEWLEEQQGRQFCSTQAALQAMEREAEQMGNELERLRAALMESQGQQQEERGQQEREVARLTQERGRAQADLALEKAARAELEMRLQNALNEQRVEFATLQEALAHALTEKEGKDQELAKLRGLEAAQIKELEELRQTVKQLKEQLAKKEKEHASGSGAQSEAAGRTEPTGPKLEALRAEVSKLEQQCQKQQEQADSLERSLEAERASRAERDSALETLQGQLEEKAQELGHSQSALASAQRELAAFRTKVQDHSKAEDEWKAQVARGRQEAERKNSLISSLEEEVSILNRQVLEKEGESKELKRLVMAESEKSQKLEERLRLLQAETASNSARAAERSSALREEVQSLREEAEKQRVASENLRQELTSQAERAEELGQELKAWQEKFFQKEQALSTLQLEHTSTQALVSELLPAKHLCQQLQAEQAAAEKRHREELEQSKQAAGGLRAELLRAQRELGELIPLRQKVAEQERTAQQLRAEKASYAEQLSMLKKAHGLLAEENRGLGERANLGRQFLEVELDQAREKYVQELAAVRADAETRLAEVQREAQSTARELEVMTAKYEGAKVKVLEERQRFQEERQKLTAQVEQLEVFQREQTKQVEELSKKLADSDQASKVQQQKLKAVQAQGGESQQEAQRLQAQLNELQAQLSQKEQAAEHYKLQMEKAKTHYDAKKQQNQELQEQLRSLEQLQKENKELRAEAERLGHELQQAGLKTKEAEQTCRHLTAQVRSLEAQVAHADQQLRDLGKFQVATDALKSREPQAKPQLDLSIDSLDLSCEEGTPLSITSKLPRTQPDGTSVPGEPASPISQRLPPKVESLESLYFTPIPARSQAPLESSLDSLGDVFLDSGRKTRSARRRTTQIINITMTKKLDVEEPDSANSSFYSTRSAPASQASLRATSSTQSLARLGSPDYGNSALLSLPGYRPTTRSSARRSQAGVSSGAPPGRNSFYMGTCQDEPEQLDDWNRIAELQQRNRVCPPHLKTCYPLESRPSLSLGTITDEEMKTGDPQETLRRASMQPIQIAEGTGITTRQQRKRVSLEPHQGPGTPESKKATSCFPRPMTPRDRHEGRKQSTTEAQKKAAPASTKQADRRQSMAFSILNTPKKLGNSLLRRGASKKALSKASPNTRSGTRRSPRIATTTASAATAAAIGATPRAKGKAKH

Tests used:
Experiment in all cases: co-IP; overexpressed MYC-AMBRA1 (WT or mutants) precipitated with anti-MYC antibody from transfected HeLa, control or Nocodazole-treated; MYC-β-Galactosidase as control; HEMG or CHAPS buffer, 4 °C; western blot
[1] = biological target: MYC-AMBRA1 S1223A (human) (UniProt Q9C0C7)
[2] = biological target: MYC-AMBRA1 AA^1209/1223 (T1209A/S1223A) (human) (UniProt Q9C0C7)
[3] = biological target: MYC-AMBRA1 AA^1209/1223 (T1209A/S1223A) (human) (UniProt Q9C0C7); remark: listed apart in the source

| binding [1] | binding [2] | binding [3] | Molecule |
| --- | --- | --- | --- |
| binds | binds | – | Polo-like kinase 1 (from UniProt P53350 1-603) (enzyme) |
| – | binds | – | Nuclear mitotic apparatus 1 (from UniProt Q14980 1-2115) |
| – | – | binds | Aurora Kinase A (enzyme, UniProt O14965 1-403) MDRSKENCISGPVKATAPVGGPKRVLVTQQFPCQNPLPVNSGQAQRVLCPSNSSQRIPLQAQKLVSSHKPVQNQKQKQLQATSVPHPVSRPLNNTQKSKQPLPSAPENNPEEELASKQKNEESKKRQWALEDFEIGRPLGKGKFGNVYLAREKQSKFILALKVLFKAQLEKAGVEHQLRREVEIQSHLRHPNILRLYGYFHDATRVYLILEYAPLGTVYRELQKLSKFDEQRTATYITELANALSYCHSKRVIHRDIKPENLLLGSAGELKIADFGWSVHAPSSRRTTLCGTLDYLPPEMIEGRMHDEKVDLWSLGVLCYEFLVGKPPFEANTYQETYKRISRVEFTFPDFVTEGARDLISRLLKHNPSQRPMLREVLEHPWITANSSKPSNCQNKESASKQS |
